Data reported in publication doi:10.1101/2022.02.15.480428.
Results are given in words; binding and its absence hold for the method and conditions named. In cells and extracts the contact can be indirect. A yes stands for co-enrichment or nearness to the bait. Other partners may have been found. For some assays here: A no says only that the protein was not detected with the bait. Sequences can lack the tags named with a protein.

Amino acid sequences for entries named in this document (tags omitted). A change or cut given only in a name is not applied to a line headed by its entry. Chains listed by the source or under a name are the forms on record and can include a tag or linker.
UniProt P48727: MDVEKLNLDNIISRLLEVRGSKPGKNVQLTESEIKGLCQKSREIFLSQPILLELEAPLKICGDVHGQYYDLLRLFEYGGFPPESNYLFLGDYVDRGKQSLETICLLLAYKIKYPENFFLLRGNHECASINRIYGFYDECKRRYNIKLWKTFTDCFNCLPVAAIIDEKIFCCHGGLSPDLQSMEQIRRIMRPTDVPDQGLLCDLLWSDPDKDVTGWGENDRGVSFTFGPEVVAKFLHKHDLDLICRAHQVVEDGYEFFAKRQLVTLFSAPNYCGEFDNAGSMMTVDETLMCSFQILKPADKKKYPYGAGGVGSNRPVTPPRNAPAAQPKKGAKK
UniProt P62136: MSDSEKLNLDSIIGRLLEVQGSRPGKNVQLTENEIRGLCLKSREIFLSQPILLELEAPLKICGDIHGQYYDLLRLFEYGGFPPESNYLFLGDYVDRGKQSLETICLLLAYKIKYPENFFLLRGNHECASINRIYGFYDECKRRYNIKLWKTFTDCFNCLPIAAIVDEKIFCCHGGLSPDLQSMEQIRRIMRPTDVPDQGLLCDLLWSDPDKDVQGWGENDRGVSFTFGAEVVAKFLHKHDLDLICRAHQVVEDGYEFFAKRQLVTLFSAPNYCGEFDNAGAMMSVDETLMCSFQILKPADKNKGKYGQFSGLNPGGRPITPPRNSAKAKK
UniProt Q27497: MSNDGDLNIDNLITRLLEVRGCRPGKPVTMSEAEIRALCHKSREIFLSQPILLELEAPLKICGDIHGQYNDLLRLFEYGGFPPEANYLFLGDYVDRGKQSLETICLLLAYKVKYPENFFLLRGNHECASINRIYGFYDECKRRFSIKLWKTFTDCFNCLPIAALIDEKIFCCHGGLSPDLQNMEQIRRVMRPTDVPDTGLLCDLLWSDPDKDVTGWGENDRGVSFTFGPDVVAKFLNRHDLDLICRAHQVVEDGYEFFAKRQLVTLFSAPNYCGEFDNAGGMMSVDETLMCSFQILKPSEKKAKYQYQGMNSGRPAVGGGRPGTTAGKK
UniProt P62140: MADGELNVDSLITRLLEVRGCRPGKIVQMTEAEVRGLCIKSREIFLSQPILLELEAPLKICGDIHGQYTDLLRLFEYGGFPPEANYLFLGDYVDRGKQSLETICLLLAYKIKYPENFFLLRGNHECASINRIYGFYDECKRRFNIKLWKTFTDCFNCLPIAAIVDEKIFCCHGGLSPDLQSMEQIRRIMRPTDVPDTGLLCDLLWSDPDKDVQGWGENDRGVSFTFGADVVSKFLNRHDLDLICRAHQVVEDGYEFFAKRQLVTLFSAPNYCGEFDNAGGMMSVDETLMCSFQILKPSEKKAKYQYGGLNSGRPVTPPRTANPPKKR
PP1γ2 (P36873-2, form named): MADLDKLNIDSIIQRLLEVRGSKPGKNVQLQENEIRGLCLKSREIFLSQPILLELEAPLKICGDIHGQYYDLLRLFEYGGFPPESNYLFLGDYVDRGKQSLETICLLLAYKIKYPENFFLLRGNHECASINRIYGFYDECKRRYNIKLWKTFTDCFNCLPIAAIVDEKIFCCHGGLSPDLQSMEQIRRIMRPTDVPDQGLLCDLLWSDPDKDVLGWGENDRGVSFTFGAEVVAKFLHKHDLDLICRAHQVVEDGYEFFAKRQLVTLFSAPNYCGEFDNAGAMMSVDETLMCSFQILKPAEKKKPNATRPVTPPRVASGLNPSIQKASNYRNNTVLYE

Key:
Assay in all cases: affinity purification with mass spectrometry
[1] = target: T1, APE-1 endogenously tagged with 3xFLAG:GFP (C. elegans) (UniProt Q9XVN3)
T1 sequence: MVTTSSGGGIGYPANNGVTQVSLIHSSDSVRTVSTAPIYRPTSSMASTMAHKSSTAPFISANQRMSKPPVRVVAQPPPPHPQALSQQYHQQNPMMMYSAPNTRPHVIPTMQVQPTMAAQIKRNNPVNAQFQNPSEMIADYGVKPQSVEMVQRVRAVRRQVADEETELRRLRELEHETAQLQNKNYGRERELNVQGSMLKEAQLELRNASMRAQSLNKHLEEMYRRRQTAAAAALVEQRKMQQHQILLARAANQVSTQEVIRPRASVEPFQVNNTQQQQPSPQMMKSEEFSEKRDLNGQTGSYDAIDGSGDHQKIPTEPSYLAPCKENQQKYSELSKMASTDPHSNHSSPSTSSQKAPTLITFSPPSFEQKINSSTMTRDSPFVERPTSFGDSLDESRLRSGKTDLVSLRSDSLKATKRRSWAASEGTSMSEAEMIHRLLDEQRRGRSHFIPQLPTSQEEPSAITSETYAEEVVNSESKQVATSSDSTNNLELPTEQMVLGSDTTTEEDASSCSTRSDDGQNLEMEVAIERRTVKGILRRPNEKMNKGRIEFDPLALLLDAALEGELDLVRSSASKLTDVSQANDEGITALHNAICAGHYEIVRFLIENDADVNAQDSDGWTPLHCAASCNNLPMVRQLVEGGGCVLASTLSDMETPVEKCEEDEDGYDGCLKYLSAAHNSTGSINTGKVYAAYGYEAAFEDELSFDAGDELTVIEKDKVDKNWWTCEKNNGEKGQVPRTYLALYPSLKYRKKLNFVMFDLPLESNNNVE

[2] = target: T2, M. musculus ASPP2 with C-terminal linker:TEV-site:HaloTag (M. musculus) (UniProt Q8CG79)
T2 sequence: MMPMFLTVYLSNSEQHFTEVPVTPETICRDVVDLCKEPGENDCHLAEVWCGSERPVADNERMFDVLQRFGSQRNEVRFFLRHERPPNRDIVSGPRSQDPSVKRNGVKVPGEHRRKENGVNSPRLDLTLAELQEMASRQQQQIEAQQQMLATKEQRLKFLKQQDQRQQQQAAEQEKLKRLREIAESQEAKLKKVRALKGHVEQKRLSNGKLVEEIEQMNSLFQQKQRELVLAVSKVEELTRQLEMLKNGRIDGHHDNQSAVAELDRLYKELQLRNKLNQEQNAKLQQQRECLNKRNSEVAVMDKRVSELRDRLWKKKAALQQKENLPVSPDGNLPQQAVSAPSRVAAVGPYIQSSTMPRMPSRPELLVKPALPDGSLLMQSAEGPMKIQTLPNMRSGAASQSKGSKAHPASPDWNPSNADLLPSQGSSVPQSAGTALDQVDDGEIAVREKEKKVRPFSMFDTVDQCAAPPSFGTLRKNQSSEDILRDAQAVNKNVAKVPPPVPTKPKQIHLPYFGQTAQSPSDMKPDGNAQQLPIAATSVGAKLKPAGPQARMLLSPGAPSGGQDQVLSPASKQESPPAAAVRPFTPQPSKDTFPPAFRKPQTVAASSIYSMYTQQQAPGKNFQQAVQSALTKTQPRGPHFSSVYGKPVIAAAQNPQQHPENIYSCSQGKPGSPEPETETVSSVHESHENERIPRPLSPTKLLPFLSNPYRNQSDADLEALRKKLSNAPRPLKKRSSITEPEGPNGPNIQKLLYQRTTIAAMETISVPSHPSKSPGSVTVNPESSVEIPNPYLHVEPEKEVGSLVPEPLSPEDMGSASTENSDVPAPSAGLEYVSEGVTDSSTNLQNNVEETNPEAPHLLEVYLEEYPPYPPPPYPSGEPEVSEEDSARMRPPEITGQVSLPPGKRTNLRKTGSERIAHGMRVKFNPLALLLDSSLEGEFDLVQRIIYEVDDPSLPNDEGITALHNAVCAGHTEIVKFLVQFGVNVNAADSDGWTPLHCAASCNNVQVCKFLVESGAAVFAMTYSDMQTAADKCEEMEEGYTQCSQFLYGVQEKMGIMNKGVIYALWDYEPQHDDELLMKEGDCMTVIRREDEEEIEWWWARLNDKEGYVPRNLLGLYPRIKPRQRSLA

[3] = target: T3, M. musculus ASPP1 with C-terminal linker:TEV-site:HaloTag (M. musculus) (UniProt Q62415)
T3 sequence: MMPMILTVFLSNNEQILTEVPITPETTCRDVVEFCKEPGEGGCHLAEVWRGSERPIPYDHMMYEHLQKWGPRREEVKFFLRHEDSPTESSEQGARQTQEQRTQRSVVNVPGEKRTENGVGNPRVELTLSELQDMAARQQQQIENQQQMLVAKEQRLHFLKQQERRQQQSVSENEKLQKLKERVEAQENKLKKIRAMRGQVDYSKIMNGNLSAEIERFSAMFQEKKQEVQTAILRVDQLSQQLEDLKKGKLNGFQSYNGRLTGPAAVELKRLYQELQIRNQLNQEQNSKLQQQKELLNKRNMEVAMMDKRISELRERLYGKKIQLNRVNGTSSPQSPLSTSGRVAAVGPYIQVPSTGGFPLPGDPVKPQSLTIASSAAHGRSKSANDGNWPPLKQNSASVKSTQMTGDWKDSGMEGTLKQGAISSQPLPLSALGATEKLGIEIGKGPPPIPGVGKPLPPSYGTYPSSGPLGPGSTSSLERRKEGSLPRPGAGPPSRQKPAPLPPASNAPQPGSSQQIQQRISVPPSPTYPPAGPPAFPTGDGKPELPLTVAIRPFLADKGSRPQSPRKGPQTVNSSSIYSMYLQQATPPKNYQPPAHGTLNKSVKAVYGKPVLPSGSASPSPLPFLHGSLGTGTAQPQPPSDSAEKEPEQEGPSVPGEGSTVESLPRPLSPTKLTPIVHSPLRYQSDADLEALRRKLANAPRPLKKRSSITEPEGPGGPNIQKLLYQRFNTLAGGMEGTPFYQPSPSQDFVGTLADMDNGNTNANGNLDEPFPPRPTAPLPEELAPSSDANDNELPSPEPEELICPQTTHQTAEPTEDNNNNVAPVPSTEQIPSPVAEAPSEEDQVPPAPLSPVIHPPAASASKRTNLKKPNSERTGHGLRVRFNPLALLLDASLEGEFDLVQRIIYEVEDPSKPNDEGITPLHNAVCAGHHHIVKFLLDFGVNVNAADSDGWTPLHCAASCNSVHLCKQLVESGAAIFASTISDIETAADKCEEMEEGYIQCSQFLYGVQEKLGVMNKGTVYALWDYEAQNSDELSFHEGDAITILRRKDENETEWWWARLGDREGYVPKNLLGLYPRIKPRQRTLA

[4] = target: T4, H. sapiens iASPP with C-terminal linker:TEV-site:HaloTag (H. sapiens) (UniProt Q8WUF5)
T4 sequence: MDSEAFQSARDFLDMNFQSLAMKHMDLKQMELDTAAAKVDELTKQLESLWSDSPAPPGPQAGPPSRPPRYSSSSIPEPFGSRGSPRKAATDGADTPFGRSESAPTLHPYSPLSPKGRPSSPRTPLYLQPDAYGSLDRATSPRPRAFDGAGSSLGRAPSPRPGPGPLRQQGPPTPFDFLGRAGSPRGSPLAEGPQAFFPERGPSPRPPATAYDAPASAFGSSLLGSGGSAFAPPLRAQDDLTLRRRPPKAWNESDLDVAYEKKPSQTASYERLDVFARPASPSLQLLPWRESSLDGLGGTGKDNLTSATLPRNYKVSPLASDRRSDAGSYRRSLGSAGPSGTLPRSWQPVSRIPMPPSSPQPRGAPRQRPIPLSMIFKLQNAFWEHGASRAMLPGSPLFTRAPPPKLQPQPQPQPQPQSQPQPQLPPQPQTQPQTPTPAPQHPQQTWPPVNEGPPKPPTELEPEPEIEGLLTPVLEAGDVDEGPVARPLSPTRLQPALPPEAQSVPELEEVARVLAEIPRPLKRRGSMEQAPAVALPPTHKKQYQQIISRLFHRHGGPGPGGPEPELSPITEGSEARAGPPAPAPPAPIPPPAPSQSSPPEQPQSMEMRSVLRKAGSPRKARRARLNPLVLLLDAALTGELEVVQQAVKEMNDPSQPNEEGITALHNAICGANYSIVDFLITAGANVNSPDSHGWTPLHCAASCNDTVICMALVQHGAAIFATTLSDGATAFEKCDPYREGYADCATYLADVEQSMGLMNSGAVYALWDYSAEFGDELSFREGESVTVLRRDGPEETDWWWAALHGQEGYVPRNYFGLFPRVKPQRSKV

Substance	binding [1]	binding [2]	binding [3]	binding [4]
GSP-2 (from UniProt P48727 1-333) (enzyme)	binds	–	–	–
MLT-4 (C. elegans (endogenous in worms))	no binding	–	–	–
PP1α (from UniProt P62136 1-330) (enzyme)	–	binds	binds	binds
p53 (human) (from UniProt P04637 1-393)	–	no binding	–	–
tubulin (C. elegans (endogenous in worms))	binds	–	–	–

Other lines, results leading:

binding [1]	binding [2]	binding [3]	binding [4]	Substance
no binding	–	–	–	GSP-1 (from UniProt Q27497 1-329) (enzyme)
–	binds	binds	binds	PP1β (from UniProt P62140 1-327) (enzyme)
–	binds	binds	binds	PP1γ2 (from UniProt P36873-2 1-337) (enzyme)
